From patent US20140141002A1 come the findings set out here.

No constants are given. Whether binding was seen depends on the method and setting. For some assays here: Binding seen in cells or lysates may run through a third protein. Some results given as binding are weak or reduced against the parent protein; the word gives no strength. For some assays here: Tags and fused reporters may be left off the sequences shown.

The target in test [1] is T1, Src homology 2 domain containing protein tyrosine phosphatase substrate 1 (SHPS-1), endogenous in porcine aortic smooth muscle cells (porcine) (UniProt F1S887).
T1 sequence: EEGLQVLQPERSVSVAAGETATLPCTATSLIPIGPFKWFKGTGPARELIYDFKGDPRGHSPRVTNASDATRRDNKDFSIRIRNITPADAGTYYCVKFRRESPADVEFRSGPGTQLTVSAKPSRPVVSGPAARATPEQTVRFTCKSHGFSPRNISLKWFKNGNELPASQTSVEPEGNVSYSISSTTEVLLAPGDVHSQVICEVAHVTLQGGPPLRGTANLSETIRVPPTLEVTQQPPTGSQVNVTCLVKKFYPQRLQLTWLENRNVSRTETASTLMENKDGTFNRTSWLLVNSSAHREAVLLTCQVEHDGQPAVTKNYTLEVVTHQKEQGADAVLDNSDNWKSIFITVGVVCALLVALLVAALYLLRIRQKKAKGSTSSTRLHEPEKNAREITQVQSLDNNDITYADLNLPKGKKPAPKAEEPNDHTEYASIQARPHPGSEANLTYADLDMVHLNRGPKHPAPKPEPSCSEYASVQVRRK
Kind of test: co-immunoprecipitation from lysates of quiescent pSMCs, with anti IAP and with anti SHPS-1 antibodies.

The target of test [2] is T1, Src homology 2 domain containing protein tyrosine phosphatase substrate 1 (SHPS-1), endogenous in porcine aortic smooth muscle cells (porcine). The experiment in a line: SHPS-1 immunoprecipitated from transfected pSMCs, immunoblot for FLAG. A general note: In western blotting, separated proteins are transferred to a membrane and probed.

B1: integrin associated protein (IAP), endogenous in porcine aortic smooth muscle cells (receptor, UniProt Q9GKE8 19-303, looked up)
chain: QLIFNITKSVEFTVCNTTVTIPCFVNNMEAKNISELYVKWKFKGKDIFIFDGAQHISKPSEAFPSSKISPSELLHGIASLKMDKRDAVIGNYTCEVTELSREGETIIELKRRFVSWFSPNENILIVIFPILAILLFWGQFGILTLKYKSSYTKEKTIFLLVAGLMLTIIVIVGAILFIPGEYSTKNACGLGLIVIPTAILILLQYCVFMMALGMSSFTIAILILQVLGHVLSVVGLSLCVSECTPVHGPLLISGLGIIALAELLGLVYMKCVASDHKTIQPPRNN
Take B1: the binding result in test [1] is reported as “binds”.

B2: Full-length porcine IAP with a C-terminal FLAG epitope (IAPfl) (receptor, UniProt Q9GKE8 19-303, looked up, not shown: small tags and cut ends)
chain: QLIFNITKSVEFTVCNTTVTIPCFVNNMEAKNISELYVKWKFKGKDIFIFDGAQHISKPSEAFPSSKISPSELLHGIASLKMDKRDAVIGNYTCEVTELSREGETIIELKRRFVSWFSPNENILIVIFPILAILLFWGQFGILTLKYKSSYTKEKTIFLLVAGLMLTIIVIVGAILFIPGEYSTKNACGLGLIVIPTAILILLQYCVFMMALGMSSFTIAILILQVLGHVLSVVGLSLCVSECTPVHGPLLISGLGIIALAELLGLVYMKCVASDHKTIQPPRNN
On to B2, for which, in test [2], the binding entry is “binds”.
